Tested on: MDA-MB-231
Assay: Cell proliferation assay (CellTiter-Glo, ATP luminescence)
Assay type: cell-based
Conditions: Homo sapiens, MDA-MB-231, 72 h, 0.05 to 5 µM in Doxo, n = 4 in quadruplicate
Protocol: The cytotoxicity profiles of the NF-Doxo and NF-Doxo-SPION were established on cancer cell line MDA-MB-231 (triple negative human breast cancer). Triple MDA-MB-231 (ECACC, Salisbury, UK) cells were cultured at 37 °C in an atmosphere containing 5% CO2. The culture medium was made of DMEM supplemented with 10% fetal bovine serum, 1% non-essential amino acid (Hyclone Laboratories, Logan, UT, USA), and 1% penicillin/streptomycin (Gibco®, Life Technologies, Paisley, UK). The cell harvesting was made with trypsin/EDTA (0.05%) (Gibco®, Life Technologies, Paisley, UK) at 80% of confluence.
Cell viability and proliferation were studied, using a luminescent test based on quantification of ATP, using the CellTiter-Glo cell proliferation assay (Promega, Madison, WI, USA). Briefly, 3.000 MDA-MB-231 cells were incubated in 100 μL of medium in 96-well plates for 24 h and then treated with different samples. A H2O2 solution at 10 mM was used as positive control and the culture medium alone was tested as a negative control. Doxo (stock solution at 5.24 mM in PBS) was used as a reference. […] Cell viability was then determined using CellTiter-Glo reagent (Promega, Madison, WI, USA). […] The luminescence values were measured with a gain at 135, with an acquisition at 0.5 s, using a microplate reader (Bio-Tek® instruments, Inc., VT, Santa Clara, CA, USA). […]

`COc1cccc2c1C(=O)c1c(O)c3c(c(O)c1C2=O)C[C@@](O)(C(=O)CO)C[C@@H]3O[C@H]1C[C@H](N)[C@H](O)[C@H](C)O1` [Doxo, Doxorubicin] showed an IC50 of 154 nM.
